Results reported in paper PMC8905735.
Results are given in words; binding and its absence hold for the method and conditions named. Binding seen in cells or lysates may run through a third protein. Some binding calls cover weakened binding; strength is not graded here.

The chains behind the UniProt entries cited, without tags or fusion partners.
UniProt O00487: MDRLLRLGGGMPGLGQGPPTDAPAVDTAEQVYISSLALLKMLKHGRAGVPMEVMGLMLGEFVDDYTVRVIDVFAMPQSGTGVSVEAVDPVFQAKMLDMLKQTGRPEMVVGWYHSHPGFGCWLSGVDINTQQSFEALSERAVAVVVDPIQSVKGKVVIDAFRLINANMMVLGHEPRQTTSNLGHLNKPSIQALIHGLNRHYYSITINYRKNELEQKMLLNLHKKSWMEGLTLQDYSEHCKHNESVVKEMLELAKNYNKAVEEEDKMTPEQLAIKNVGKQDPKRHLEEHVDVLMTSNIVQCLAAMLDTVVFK

T1: transforming growth factor beta receptor 1 (TGFBR1) (UniProt P80204)
T1 sequence: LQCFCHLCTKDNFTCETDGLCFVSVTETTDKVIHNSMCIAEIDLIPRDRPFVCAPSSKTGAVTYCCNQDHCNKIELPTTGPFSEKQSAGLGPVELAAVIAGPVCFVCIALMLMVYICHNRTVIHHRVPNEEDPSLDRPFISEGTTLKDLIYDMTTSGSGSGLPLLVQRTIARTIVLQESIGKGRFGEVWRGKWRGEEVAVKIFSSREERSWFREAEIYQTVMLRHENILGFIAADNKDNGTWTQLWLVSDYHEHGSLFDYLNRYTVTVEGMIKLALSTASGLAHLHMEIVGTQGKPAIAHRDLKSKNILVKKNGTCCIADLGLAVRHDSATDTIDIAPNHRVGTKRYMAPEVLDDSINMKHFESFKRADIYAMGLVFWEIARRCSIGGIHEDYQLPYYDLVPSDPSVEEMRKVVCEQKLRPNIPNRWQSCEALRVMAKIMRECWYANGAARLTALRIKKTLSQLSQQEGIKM


Legend:
[1] = target: T1, transforming growth factor beta receptor 1 (TGFBR1); assay: co-IP; lysates of rMCs transfected with TGFBR1 or PSMD14 overexpression vectors (24 h); Protein G agarose beads; immunoprecipitation with anti-PSMD14 or anti-TGFBR1, western blot of the immunoprecipitates
[2] = target: proteasome 26S subunit, non-ATPase 14 (PSMD14) (UniProt O00487); assay: as above

| Molecule | binding [1] | binding [2] |
| --- | --- | --- |
| proteasome 26S subunit, non-ATPase 14 (PSMD14) (from UniProt O00487 1-310) (enzyme) | binds |  |
| transforming growth factor beta receptor 1 (TGFBR1) (receptor, UniProt P80204 30-501) LQCFCHLCTKDNFTCETDGLCFVSVTETTDKVIHNSMCIAEIDLIPRDRPFVCAPSSKTGAVTYCCNQDHCNKIELPTTGPFSEKQSAGLGPVELAAVIAGPVCFVCIALMLMVYICHNRTVIHHRVPNEEDPSLDRPFISEGTTLKDLIYDMTTSGSGSGLPLLVQRTIARTIVLQESIGKGRFGEVWRGKWRGEEVAVKIFSSREERSWFREAEIYQTVMLRHENILGFIAADNKDNGTWTQLWLVSDYHEHGSLFDYLNRYTVTVEGMIKLALSTASGLAHLHMEIVGTQGKPAIAHRDLKSKNILVKKNGTCCIADLGLAVRHDSATDTIDIAPNHRVGTKRYMAPEVLDDSINMKHFESFKRADIYAMGLVFWEIARRCSIGGIHEDYQLPYYDLVPSDPSVEEMRKVVCEQKLRPNIPNRWQSCEALRVMAKIMRECWYANGAARLTALRIKKTLSQLSQQEGIKM |  | binds |
